The text below walks through data of publication doi:10.1101/2020.09.14.297283.

The assay addresses endogenous zebrafish Ryk (zebrafish (endogenous in 18 hpf embryos)). Put plainly: co-IP.

Results are given in words; binding and its absence hold for the method and conditions named. In cells and extracts the contact can be indirect. A result given as binding can be weak or reduced; the word gives no strength.

B1: endogenous zebrafish Pcdh19 (protein, UniProt F8W3X3 25-1088)
chain: VFNLKYTVEEELRAGTKIANVTADAKVAGFALGNRQPYLRVISNSEPRWVNLSPAGLLITKQKIDRDAVCRQTPKCFISLEVMSNSMEICVIKIEIIDVNDNAPRFPTNHIDIEISENAAPGTRFPLEGASDPDSGSNGIQTYTITPNDIFGLEIKTRGDGSKIAELVVEKTLDRETQSRYTFELTAEDGGDPPKSGTVQLNIKVIDSNDNNPVFDEPVYTVNVLENSPINTLVIDLNATDPDEGTNGEVVYSFINFVSNLTKQMFKIDPKTGVITVNGVLDHEELHIHEIDVQAKDLGPNSIPAHCKVIVNVIDINDNAPEIKLLSENSEMVEVSENAPLGYVIALVRVSDNDSGANGKVQCRLQGNVPFRLNEFESFSTLLVDGRLDREQRDMYNLTILAEDSGYPPLRSSKSFAVKVTDENDNPPYFTKPHYQAMVLENNVPGAFLLAVSARDPDLGMNGTVSYEIIKSEVRGMSVESYVTVNSNGEIYGVRAFNHEDTRTFEFKVSAKDGGDPPLTSNATVRIVVLDVNDNTPVMTTPPLVNGTAEVSIPKNAGVGYLVTQIKADDYDEGENGRLTYSISEGDMAYFEIDQINGEVRTTKTFGENAKPSYQITVVAHDHGQTSLSASAYIVIYLSPDLNAQEQIGPVNLSLIFIIALGSIAVILFVTMIFVAVKCKRDNKEIRTYNCRVAEYSYGNQKKSSKKKKLSKNDIRLVPRDVEETDKMNVVSCSSLTSSLNYFDYHQQTLPLGCRRSESTFLNVENQNSRNAAPNHGYHHTFTGQGPQQPDLIINGMPLPETENYSIDSSYVNSRAHLIKSTSTFKDMEGNSLKDSGHEESDQTDSEHDVQRGHYADTAVNDVLNMTVPSNNSQIPDQDQSEGFHCQDECRILGHSDRCWMPRVPIPARAKSPEHGRNVIALSIEATTVDVPHYEDCGTTKRTFATFGKDGPDEDRAEQRGRRQTAEPAVCSPKTNGAVREAGNGREAVSPITSPVHLKSPQSKASSTYNTLKCRDAERIANHSLLRQPEGKDSEPAMREINTLLQDGRDKESPGSKRLKDIVL
In the case of B1, the binding entry is given as “binds”.
